# Test results as given in PubChem BioAssay AID2551 (National Center for Advancing Translational Sciences (NCATS), 2010).
# By UniProt entry, the sequences of proteins in these tests, tags left out. Where a name states a change or a piece, a line headed by the entry shows the natural chain unless it says otherwise.
# UniProt P51450: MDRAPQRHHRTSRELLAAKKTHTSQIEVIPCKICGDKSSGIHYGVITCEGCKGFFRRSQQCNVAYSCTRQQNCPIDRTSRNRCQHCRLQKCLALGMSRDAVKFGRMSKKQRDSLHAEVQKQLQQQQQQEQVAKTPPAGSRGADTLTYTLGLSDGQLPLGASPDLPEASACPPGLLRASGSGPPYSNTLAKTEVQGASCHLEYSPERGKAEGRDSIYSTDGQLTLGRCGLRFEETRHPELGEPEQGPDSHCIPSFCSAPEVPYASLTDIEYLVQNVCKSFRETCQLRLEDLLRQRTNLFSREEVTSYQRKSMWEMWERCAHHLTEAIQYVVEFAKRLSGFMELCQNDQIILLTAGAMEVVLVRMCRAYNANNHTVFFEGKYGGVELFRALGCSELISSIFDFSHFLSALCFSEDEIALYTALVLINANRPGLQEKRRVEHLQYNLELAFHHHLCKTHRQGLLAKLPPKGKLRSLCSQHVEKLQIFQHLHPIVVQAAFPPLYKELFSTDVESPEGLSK
# Among all 310,000 compounds or so, about 17,000 (5.5%) were called active. Inconclusive means that the source gave no clear call. Such entries were picked first, then a sample of the others. Calls come from the whole dose curve; as a rule, active = well fitted inhibition curve with a large enough effect; inconclusive = small, poorly fitted or top-dose-only effect, or effect the other way; inactive = no such curve, though single readings can be large or run the other way. Where the call is inconclusive, the potency comes from a doubtful curve fit.
# Target: Nuclear receptor ROR-gamma (Mus musculus) (UniProt P51450)
# Assay: qHTS for inhibitors of ROR gamma transcriptional activity; note: nearly all actives have a fitted effect of over 60% in size
# Conditions: Drosophila S2 Gal4-RORgamma UAS-luciferase reporter, 20 h; activity change, negative = inhibition: at 53.6 µM (top of the series)
# How it was run: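 Luciferase reporter read in Schneider cells carrying Gal4-RORγ (mouse) and UAS-Photinus luciferase; cells given compound 1 h before 700 uM copper sulfate induction, then incubated 20 h at ambient temperature.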
# % is set by controls: 0 for no effect and ±100 for the full control effect; potency is the fitted concentration of half-maximal effect.
Compound,Potency,"activity change, negative = inhibition"
O=C(N/N=C/c1c(O)ccc2ccccc12)c1cccnc1,active: 10 µM,–
O=C(c1ccc2nc(N3CCOCC3)sc2c1)N1CCC(Cc2ccccc2)CC1,"inconclusive: 25.1 µM [inhibitor, single point]",–
CC(C)Cc1cc(C(=O)Nc2c(F)cc(F)cc2Br)no1,"inconclusive: 11.2 µM [activator, partial curve]",–
C(=N\n1cnnc1)/c1ccc(OCc2ccccc2)cc1,–,inactive: 36.3%
O=[N+]([O-])c1ccc(N2CCN(C(=S)Nc3ccc(F)cc3)CC2)cc1,"inconclusive: 35.5 µM [inhibitor, single point]",–
O=C(COC(=O)C1CC2C=CC1C2)Nc1ccc2c(c1)OC(F)(F)O2 (centres undefined),"inconclusive: 15.8 µM [activator, partial curve]",–
COc1ccc(C(=O)O/N=C(\N)c2ccccn2)cc1[N+](=O)[O-],–,inactive: -42.4% [at 1.91 µM]
O=C(Nc1ccc(Cl)c(Cl)c1)OCc1cccnc1,"inconclusive: 14.1 µM [activator, single point]",–
COc1cc(C(CCN2CCCCC2)c2c(OC)cc(OC)c3c(-c4ccccc4)cc(=O)oc23)cc(OC)c1OC (centres undefined),"inconclusive: 35.5 µM [inhibitor, single point]",–
Cc1c(/C=N/Nc2ccc(C(=O)O)cc2)c2ccccc2n1C,"inconclusive: 14.1 µM [inhibitor, partial curve]",–
O=C1CSC(c2cn(-c3ccccc3)nc2-c2cccs2)N1CC1CCCO1 (centres undefined),"inconclusive: 10 µM [activator, single point]",–
Cc1ccc(-n2nc(C)c(NC(=O)CCl)c2C)cc1C,"inconclusive: 2.24 µM [activator, full curve, poor fit]",–
COc1ccc2nc(NC(=O)c3cccc(OCc4c(C)noc4C)c3)sc2c1,active: 11.2 µM,–
COc1ccccc1CCc1nnc(CCC(=O)NCC(C)Oc2cccnc2)o1 (centres undefined),–,inactive: -19.4%
COc1ccc(-n2c(-c3ccc(Br)cc3)nc(=S)c3c2CCCC3)cc1,active: 7.94 µM,–
CC(C)(C)CC(=O)NC(=S)NCc1ccco1,active: 4.47 µM,–
CC(=O)Oc1ccc(-n2c(=O)c3ccccc3c3ccccc3c2=O)cc1,–,inactive: 6.64%
CCOC(=O)c1c(NC(=O)C(NCCN(C)C)c2ccccc2)sc2c1CCCC2 (centres undefined),active: 3.55 µM,–
CCCCNC(=S)NCC(c1ccccc1)c1c[nH]c2ccccc12 (centres undefined),"inconclusive: 31.6 µM [inhibitor, single point]",–
O=C(Cc1cccs1)NNC(=S)NC(=O)c1ccccc1,active: 7.94 µM,–
Cc1onc(-c2ccc(Cl)cc2)c1-c1ccnn1S(=O)(=O)c1cccc(C(F)(F)F)c1,"inconclusive: 15.8 µM [activator, partial curve]",–
Cc1ccc(COc2ccc(/C=N/O)cc2)cc1,active: 8.91 µM,–
O=C(Nc1nccs1)c1cncc(Br)c1,"inconclusive: 17.8 µM [inhibitor, single point]",–
CN(c1ccccc1)S(=O)(=O)c1cccc(C(=O)NNC(=O)c2ccccc2)c1,–,inactive: 27.2%
Oc1ccc(-c2nnc(SCC3CCCCC3)o2)cc1,active: 3.16 µM,–

Compound,Potency,"activity change, negative = inhibition"
CCOC(=O)c1sc(NC(=O)Nc2ccccc2Cl)cc1C,"inconclusive: 17.8 µM [inhibitor, single point]",–
C=CCN1C(C(=O)c2ccccc2)=C(OC(=O)COc2ccccc2)c2ccccc2S1(=O)=O,"inconclusive: 22.4 µM [inhibitor, single point]",–
CSCCC(=O)Nc1nc(-c2ccccn2)cs1,active: 12.6 µM,–
CCN(CC)S(=O)(=O)c1cc(C(=O)Nc2cc(Cl)ccc2N2CCN(C)CC2)ccc1Cl,"inconclusive: 35.5 µM [inhibitor, single point]",–
CC1=NN(C(N)=S)C(=O)C1N=Nc1c(Br)cc(Br)cc1Br (centres undefined),active: 1.41 µM,–
C=CCNC(=O)c1ccc([N+](=O)[O-])c(Cl)c1,–,inactive: 16.3%
N#C/C(=C\c1ccc(OC(=O)c2ccccn2)cc1)C(N)=O,–,inactive: 8.49%
CCCN(CC(=O)Nc1ccccc1C)C(=O)Cc1coc2cc(C)ccc12,–,inactive: 16.7%
Cc1cc(C(C)(C)C)cc(C)c1COC(=O)c1cccnc1,"inconclusive: 0.501 µM [inhibitor, single point]",–
Cc1cc(NC(=O)c2ccc3c(c2)OCO3)no1,"inconclusive: 12.6 µM [inhibitor, single point]",–
S=c1[nH]nc(-c2ccccn2)n1/N=C/c1cccc2ccccc12,active: 2.24 µM,–
O=C(Nc1ccc(/C=C/c2nc3ccccc3o2)cc1)c1cccc(C(F)(F)F)c1,"inconclusive: 35.5 µM [inhibitor, single point]",–
CS(=O)(=O)Nc1cccc(-c2nc(NC3CC3)c3ccccc3n2)c1,–,inactive: 34.3%
CCn1cc(C(=O)NCC2CCCO2)c(=O)c2cc(S(=O)(=O)N3CCCCCC3)ccc21 (centres undefined),"inconclusive: 14.1 µM [activator, single point]",–
CC(=O)N(Cc1cccnc1)c1cccc(-c2nc3ccccc3s2)c1,–,inactive: -18%
CC(=O)O[C@@]12CO[C@@H]1C[C@H](O)[C@@]1(C)C(=O)[C@H](O)C3=C(C)[C@@H](OC(=O)[C@H](O)[C@@H](NC(=O)OC(C)(C)C)c4ccccc4)C[C@](O)([C@@H](OC(=O)c4ccccc4)[C@H]21)C3(C)C,"inconclusive: 5.62 µM [activator, single point]",–
CCNC(=S)Nc1scc(-c2ccccc2)c1C(=O)OCC,active: 1.41 µM,–
Cc1ccc(C(=O)N2CCN(c3ccccc3)CC2)cc1S(=O)(=O)N1CCOCC1,–,inactive: 32.6%
c1ccc2c(N3CCCCC3)nc(N3CCCCC3)nc2c1,"inconclusive: 8.91 µM [inhibitor, partial curve]",–
O=C(Nc1ccc(Nc2ccccc2)cc1)c1ccc(F)cc1,"inconclusive: 12.6 µM [activator, single point]",–
O=C(NCc1cccnc1)c1cc(Sc2cccc(Cl)c2)nc2ccccc12,"inconclusive: 35.5 µM [activator, single point]",–
COc1ccc(NS(=O)(=O)c2cccc(-c3nnc(-c4ccccc4)o3)c2)cc1,"inconclusive: 14.1 µM [activator, single point]",–
COCCCN(Cc1ccco1)C(=O)Cn1ncc2c(=O)oc3ccc(C)cc3c21,"inconclusive: 35.5 µM [inhibitor, single point]",–
CCCC[P+](CCCC)(CCCC)Cc1ccc(NC(=O)[C@@H](Cc2ccc3ccccc3c2)NC(=NC2CCCCC2)NC2CCCCC2)cc1,"inconclusive: 31.6 µM [activator, partial curve]",–
CCc1nnc(NC(=O)c2cccs2)s1,"inconclusive: 6.31 µM [activator, single point]",–

# Exported tab-delimited: part of the list above
Compound	Potency	activity change, negative = inhibition
O=C1CSC(c2cn(-c3ccccc3)nc2-c2cccs2)N1CC1CCCO1 (centres undefined)	inconclusive: 10 µM [activator, single point]	–
COc1ccccc1CCc1nnc(CCC(=O)NCC(C)Oc2cccnc2)o1 (centres undefined)	–	inactive: -19.4%
C=CCNC(=O)c1ccc([N+](=O)[O-])c(Cl)c1	–	inactive: 16.3%
Cc1cc(C(C)(C)C)cc(C)c1COC(=O)c1cccnc1	inconclusive: 0.501 µM [inhibitor, single point]	–

# The list continues:

Compound,Potency,"activity change, negative = inhibition"
COc1ccc(OCCN2C(=O)c3ccccc3C2=O)c([N+](=O)[O-])c1,"inconclusive: 20 µM [activator, partial curve, poor fit]",–
CCOC(=O)c1cc(C)nc(S(C)(=O)=O)c1C#N,active: 8.91 µM,–
S=C(N/N=C/c1ccco1)NC1CC2CCC1C2 (centres undefined),active: 0.562 µM,–
C=CCNC(=S)Nc1c(N)n(C)c(=O)n(C)c1=O,–,inactive: -17.1%
O=C(NNC1=NCCC1)c1cccc(S(=O)(=O)N2CCCC2)c1,active: 8.91 µM,–
Nc1nonc1C(=O)NCCN=Cc1cc(Cc2ccccc2)cc(Br)c1O,"inconclusive: 15.8 µM [inhibitor, single point]",–
Cn1ncc(Cl)c1C(=O)Nc1sc2c(c1C(N)=O)CCC2,"inconclusive: 8.91 µM [activator, partial curve]",–
C=CCn1c(SCC(=O)NNC(=O)Nc2ccc(C)cc2)nnc1-c1ccccc1,–,inactive: 13.5%
CCOC(=O)c1ccc(CNC(=O)CSc2nnc(-c3ccncc3)o2)cc1,–,inactive: 6.64%
COC(=O)/C=C1\N/C(=N/c2nc(C)c3cc(OC)ccc3n2)NC1=O,"inconclusive: 14.1 µM [inhibitor, single point]",–
COc1cccc(N2C(=O)Nc3ccc(Br)cc3C2(O)C(=O)NCCCOC(C)C)c1 (centres undefined),–,inactive: 22.3%
COc1ccc2c(c1)c(=O)c(Br)c(C)n2Cc1ccccc1,"inconclusive: 17.8 µM [inhibitor, single point]",–
COC(=O)c1sccc1NC(=O)c1ccc(C(C)C)cc1,"inconclusive: 12.6 µM [activator, partial curve]",–
COc1cc(O)ccc1/C=N/NC(=O)c1ccc([N+](=O)[O-])cc1,"inconclusive: 8.91 µM [inhibitor, partial curve]",–
CCS(=O)(=O)c1c([N+](=O)[O-])ncn1C,"inconclusive: 7.08 µM [inhibitor, single point]",–
COc1ccc(C(=O)N2CCC3(CCN(Cc4cc(C(F)(F)F)cc(C(F)(F)F)c4)CC3)CC2)cc1,–,inactive: 1.27%
COc1ccc(CNC(=O)c2ccc(Br)s2)cc1OC,"inconclusive: 2.82 µM [activator, full curve]",–
Cc1cc2ncn(CC(C)C)c2cc1C,active: 7.94 µM,–
O=C(Cc1ccccc1)NC1CCN(Cc2ccccc2)CC1,–,inactive: -15.8%
COc1ccc(COC(=O)C2=C(C)NC(=O)NC2c2ccccc2)cc1 (centres undefined),"inconclusive: 0.0447 µM [activator, full curve, poor fit]",–
CNc1nc(C23CC4CC(CC(C4)C2)C3)cs1,active: 10 µM,–
O=C(O)Cc1sc(Nc2ccc(F)cc2)nc1-c1cccs1,"inconclusive: 35.5 µM [inhibitor, single point]",–
CCc1nnc(NC(=O)C2Cc3ccccc3CN2S(=O)(=O)c2c(C)c(C)cc(C)c2C)s1 (centres undefined),active: 11.2 µM,–
N#CC(C(=O)NCCc1ccccc1)c1nc2ccccc2nc1N1CCOCC1 (centres undefined),–,inactive: -25.4%
